# Drug screen on melanoma cell lines: apoptosis marker

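Human melanoma cells were exposed to two drugs together for 72 h in 1,536-well plates and read by automated microscopy after fixing and staining. Values are the share of nuclei positive for cleaved PARP as a percentage of the same share in the DMSO control: 100 is the control level, higher means more apoptosis. Concentrations were fixed for each drug; these are the higher of two levels. These are primary screening values without error estimates. The marker varies much from line to line, for technical or biological reasons.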 Only some of the drugs and lines screened are listed, without regard to their results. A dash means that no value is listed here.

Drugs:
GW0742, 10000 nM: Cc1cc(SCc2sc(-c3ccc(C(F)(F)F)c(F)c3)nc2C)ccc1OCC(=O)O
MK-1775, 100 nM: C=CCn1c(=O)c2cnc(Nc3ccc(N4CCN(C)CC4)cc3)nc2n1-c1cccc(C(C)(C)O)n1
lenalidomide, 5000 nM: Nc1cccc2c1CN(C1CCC(=O)NC1=O)C2=O (centres undefined)
vorinostat, 400 nM: O=C(CCCCCCC(=O)Nc1ccccc1)NO
FH535, 5000 nM: Cc1cc([N+](=O)[O-])ccc1NS(=O)(=O)c1cc(Cl)ccc1Cl
CP-690550, 5000 nM: C[C@@H]1CCN(C(=O)CC#N)C[C@@H]1N(C)c1ncnc2[nH]ccc12
GW441756, 2000 nM: Cn1cc(/C=C2\C(=O)Nc3cccnc32)c2ccccc21
OSI-906, 2000 nM: C[C@]1(O)C[C@@H](c2nc(-c3ccc4ccc(-c5ccccc5)nc4c3)c3c(N)nccn32)C1

Combination,501mel,SK-MEL-30,COLO 800,C32,LOX IMVI,UACC-62
GW441756 + GW0742,103,57.0,52.1,85.1,137,167
MK-1775 + OSI-906,-,53.1,210,333,111,227
FH535 + CP-690550,171,43.9,109,84.0,205,35.4
lenalidomide + OSI-906,-,83.5,155,203,176,95.3
GW0742 + lenalidomide,123,103,188,93.6,135,83.4
vorinostat + OSI-906,-,119,245,198,225,206
GW441756 + lenalidomide,65.8,107,188,250,21.8,139
OSI-906 + GW441756,-,116,130,80.6,160,173
lenalidomide + vorinostat,-,110,151,62.7,51.5,199
GW0742 + vorinostat,64.7,139,98.0,86.5,88.3,88.3
vorinostat + FH535,154,95.1,132,104,70.4,87.0
FH535 + GW0742,54.9,40.4,42.2,89.8,102,41.1
MK-1775 + CP-690550,-,153,182,84.6,89.8,131
GW0742 + MK-1775,124,153,96.5,105,101,124
GW441756 + FH535,51.4,76.7,125,95.3,79.8,79.9
MK-1775 + GW441756,118,153,119,105,45.0,48.1
OSI-906 + CP-690550,-,113,259,85.9,112,124
vorinostat + MK-1775,-,252,377,75.3,237,106
CP-690550 + GW0742,40.9,89.9,244,278,62.5,15.0
MK-1775 + lenalidomide,-,145,135,179,72.5,148
GW0742 + OSI-906,214,79.3,223,76.0,819,59.4

The first 2 entries again:

Combination,501mel,SK-MEL-30,COLO 800,C32,LOX IMVI,UACC-62
GW441756 + GW0742,103,57.0,52.1,85.1,137,167
MK-1775 + OSI-906,-,53.1,210,333,111,227

From a melanoma drug combination screen (doi:10.1371/journal.pone.0140310); values rounded.